In PMC12217353:
Residue numbers refer to the chain shown, from its start. Names and notes keep the numbering of the source. No constants are given. Whether binding was seen depends on the method and setting. Binding seen in cells or lysates may run through a third protein. Some results given as binding are weak or reduced against the parent protein; the word gives no strength. Sequences can lack the tags named with a protein.

The chains behind the UniProt entries cited, without tags or fusion partners.
UniProt P13569: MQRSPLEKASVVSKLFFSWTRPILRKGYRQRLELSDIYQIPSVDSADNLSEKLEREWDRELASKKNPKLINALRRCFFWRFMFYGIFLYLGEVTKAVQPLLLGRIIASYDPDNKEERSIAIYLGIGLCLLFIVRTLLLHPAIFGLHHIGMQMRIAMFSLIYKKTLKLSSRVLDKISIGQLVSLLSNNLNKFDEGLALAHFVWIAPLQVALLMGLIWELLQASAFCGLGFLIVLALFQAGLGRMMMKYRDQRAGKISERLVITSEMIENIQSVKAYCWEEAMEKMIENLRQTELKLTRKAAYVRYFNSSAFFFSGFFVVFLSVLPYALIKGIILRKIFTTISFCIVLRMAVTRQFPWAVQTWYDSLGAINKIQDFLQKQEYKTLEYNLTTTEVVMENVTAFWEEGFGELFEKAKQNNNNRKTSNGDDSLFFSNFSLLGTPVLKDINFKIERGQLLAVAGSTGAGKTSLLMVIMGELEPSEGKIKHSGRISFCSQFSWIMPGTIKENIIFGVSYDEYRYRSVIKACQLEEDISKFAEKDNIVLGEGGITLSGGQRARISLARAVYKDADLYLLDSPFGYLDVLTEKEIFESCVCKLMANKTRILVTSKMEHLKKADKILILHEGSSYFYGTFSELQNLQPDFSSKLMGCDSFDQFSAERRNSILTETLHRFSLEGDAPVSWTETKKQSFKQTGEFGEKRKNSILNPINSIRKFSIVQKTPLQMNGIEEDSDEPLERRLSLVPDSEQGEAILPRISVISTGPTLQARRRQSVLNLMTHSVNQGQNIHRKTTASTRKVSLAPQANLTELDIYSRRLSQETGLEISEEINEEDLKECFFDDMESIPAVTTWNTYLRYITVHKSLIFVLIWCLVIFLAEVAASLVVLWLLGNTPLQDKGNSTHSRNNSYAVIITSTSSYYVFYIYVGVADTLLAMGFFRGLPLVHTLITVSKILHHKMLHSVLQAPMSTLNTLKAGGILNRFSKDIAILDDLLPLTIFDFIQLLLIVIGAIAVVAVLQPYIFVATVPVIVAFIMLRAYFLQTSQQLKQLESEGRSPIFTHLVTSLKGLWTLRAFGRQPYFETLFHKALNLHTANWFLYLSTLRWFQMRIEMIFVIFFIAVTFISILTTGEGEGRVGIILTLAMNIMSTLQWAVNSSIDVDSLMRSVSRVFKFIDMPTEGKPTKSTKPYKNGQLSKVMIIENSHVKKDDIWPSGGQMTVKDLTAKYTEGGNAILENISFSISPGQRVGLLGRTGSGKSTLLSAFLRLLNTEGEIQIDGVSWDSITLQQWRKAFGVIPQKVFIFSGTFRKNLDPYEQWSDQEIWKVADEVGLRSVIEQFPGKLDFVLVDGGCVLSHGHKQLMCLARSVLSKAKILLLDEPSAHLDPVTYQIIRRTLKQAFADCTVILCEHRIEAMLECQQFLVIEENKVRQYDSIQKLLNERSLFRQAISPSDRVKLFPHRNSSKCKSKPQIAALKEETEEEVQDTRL
UniProt P26361: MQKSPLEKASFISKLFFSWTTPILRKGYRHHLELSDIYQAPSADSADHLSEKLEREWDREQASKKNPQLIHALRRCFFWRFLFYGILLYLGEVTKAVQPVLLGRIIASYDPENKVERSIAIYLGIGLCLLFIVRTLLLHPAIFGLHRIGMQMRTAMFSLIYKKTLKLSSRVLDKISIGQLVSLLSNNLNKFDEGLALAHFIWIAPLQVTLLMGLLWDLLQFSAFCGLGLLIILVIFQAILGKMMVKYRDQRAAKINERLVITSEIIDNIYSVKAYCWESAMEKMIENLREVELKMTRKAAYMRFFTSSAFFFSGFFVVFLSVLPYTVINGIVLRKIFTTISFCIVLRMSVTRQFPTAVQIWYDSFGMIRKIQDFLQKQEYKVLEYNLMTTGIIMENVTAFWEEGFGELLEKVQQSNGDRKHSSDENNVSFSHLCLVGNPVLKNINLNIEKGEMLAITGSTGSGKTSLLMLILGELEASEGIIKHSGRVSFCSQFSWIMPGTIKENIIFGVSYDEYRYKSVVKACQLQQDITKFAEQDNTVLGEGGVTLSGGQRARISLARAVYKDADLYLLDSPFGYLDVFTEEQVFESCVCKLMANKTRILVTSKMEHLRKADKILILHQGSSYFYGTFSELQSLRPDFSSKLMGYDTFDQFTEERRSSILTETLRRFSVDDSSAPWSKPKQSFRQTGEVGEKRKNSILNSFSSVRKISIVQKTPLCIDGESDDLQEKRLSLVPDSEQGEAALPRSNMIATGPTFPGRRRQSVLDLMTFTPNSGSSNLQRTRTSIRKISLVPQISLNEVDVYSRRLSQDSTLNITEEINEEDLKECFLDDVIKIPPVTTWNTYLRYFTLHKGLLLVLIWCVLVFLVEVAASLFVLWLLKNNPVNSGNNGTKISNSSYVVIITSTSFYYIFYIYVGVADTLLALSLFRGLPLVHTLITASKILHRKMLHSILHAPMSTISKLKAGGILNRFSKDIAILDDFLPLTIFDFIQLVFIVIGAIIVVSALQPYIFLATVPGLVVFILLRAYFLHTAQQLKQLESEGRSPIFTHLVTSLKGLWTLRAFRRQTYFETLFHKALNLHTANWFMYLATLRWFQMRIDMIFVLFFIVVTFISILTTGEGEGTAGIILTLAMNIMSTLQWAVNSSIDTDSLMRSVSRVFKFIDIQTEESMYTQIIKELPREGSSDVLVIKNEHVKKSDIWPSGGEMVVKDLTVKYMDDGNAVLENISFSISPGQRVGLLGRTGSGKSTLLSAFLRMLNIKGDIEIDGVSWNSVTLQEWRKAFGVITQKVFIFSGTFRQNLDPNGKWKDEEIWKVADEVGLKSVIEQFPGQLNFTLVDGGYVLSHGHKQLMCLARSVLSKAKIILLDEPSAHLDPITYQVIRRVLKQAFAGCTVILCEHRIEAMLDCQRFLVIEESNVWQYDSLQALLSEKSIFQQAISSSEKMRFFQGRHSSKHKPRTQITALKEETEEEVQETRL

T1: NBCe1-B-eGFP (UniProt Q9Y6R1)
T1 sequence: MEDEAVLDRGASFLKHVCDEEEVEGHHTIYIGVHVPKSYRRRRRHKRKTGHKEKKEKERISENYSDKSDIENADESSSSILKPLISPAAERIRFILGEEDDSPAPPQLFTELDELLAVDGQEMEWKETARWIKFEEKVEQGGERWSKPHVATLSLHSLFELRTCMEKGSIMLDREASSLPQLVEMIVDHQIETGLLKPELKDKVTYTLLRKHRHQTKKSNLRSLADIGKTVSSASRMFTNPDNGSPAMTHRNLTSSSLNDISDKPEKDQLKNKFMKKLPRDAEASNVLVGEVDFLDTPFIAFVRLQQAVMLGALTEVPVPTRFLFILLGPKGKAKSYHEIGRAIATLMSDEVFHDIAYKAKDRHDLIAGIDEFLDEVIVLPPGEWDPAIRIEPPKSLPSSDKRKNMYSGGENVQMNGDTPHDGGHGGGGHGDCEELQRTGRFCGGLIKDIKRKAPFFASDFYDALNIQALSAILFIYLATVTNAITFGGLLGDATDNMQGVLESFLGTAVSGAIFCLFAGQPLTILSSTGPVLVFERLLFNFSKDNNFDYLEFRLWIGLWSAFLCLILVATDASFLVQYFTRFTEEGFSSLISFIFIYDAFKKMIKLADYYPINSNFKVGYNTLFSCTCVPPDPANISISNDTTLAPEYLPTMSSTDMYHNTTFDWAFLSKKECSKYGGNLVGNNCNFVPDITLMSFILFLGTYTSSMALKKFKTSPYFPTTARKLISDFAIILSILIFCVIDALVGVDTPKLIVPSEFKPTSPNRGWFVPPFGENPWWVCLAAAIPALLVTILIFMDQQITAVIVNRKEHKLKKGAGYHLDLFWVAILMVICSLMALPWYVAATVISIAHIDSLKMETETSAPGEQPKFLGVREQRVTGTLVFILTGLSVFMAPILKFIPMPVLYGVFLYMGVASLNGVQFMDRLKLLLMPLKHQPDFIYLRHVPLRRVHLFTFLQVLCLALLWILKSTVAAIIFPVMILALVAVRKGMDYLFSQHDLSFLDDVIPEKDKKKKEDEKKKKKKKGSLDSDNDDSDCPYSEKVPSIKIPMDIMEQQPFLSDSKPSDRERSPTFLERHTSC

B1: E3SMP-Flag (domain or fragment, UniProt A0FGR9 114-293)
chain: DVERVEWANKIISQTWPYLSMIMESKFREKLEPKIREKSIHLRTFTFTKLYFGQKCPRVNGVKAHTNTCNRRRVTVDLQICYIGDCEISVELQKIQAGVNGIQLQGTLRVILEPLLVDKPFVGAVTVFFLQKPHLQINWTGLTNLLDAPGINDVSDSLLEDLIATHLVLPNRVTVPVKKG
B2: E-Syt3-Myc (adenoviral, in mouse submandibular gland) (protein, UniProt A0FGR9 1-886)
chain: MRAEEPCAPGAPSALGAQRTPGPELRLSSQLLPELCTFVVRVLFYLGPVYLAGYLGLSITWLLLGALLWMWWRRNRRGKLGRLAAAFEFLDNEREFISRELRGQHLPAWIHFPDVERVEWANKIISQTWPYLSMIMESKFREKLEPKIREKSIHLRTFTFTKLYFGQKCPRVNGVKAHTNTCNRRRVTVDLQICYIGDCEISVELQKIQAGVNGIQLQGTLRVILEPLLVDKPFVGAVTVFFLQKPHLQINWTGLTNLLDAPGINDVSDSLLEDLIATHLVLPNRVTVPVKKGLDLTNLRFPLPCGVIRVHLLEAEQLAQKDNFLGLRGKSDPYAKVSIGLQHFRSRTIYRNLNPTWNEVFEFMVYEVPGQDLEVDLYDEDTDRDDFLGSLQICLGDVMTNRVVDEWFVLNDTTSGRLHLRLEWLSLLTDQEVLTEDHGGLSTAILVVFLESACNLPRNPFDYLNGEYRAKKLSRFARNKVSKDPSSYVKLSVGKKTHTSKTCPHNKDPVWSQVFSFFVHNVATERLHLKVLDDDQECALGMLEVPLCQILPYADLTLEQRFQLDHSGLDSLISMRLVLRFLQVEERELGSPYTGPEALKKGPLLIKKVATNQGPKAQPQEEGPTDLPCPPDPASDTKDVSRSTTTTTSATTVATEPTSQETGPEPKGKDSAKRFCEPIGEKKSPATIFLTVPGPHSPGPIKSPRPMKCPASPFAWPPKRLAPSMSSLNSLASSCFDLADISLNIEGGDLRRRQLGEIQLTVRYVCLRRCLSVLINGCRNLTPCTSSGADPYVRVYLLPERKWACRKKTSVKRKTLEPLFDETFEFFVPMEEVKKRSLDVAVKNSRPLGSHRRKELGKVLIDLSKEDLIKGFSQWYELTPNGQPRS
B3: E-Syt3(K123A/I124A) (protein, UniProt A0FGR9 1-886)
chain: B2 chain with K123A, I124A
B4: E3C2C-RFP (domain or fragment, UniProt A0FGR9 754-886)
chain: QLGEIQLTVRYVCLRRCLSVLINGCRNLTPCTSSGADPYVRVYLLPERKWACRKKTSVKRKTLEPLFDETFEFFVPMEEVKKRSLDVAVKNSRPLGSHRRKELGKVLIDLSKEDLIKGFSQWYELTPNGQPRS
B5: native E-Syt3 of mouse submandibular gland (protein, UniProt Q5DTI8 1-891)
chain: MQPEEPCAPSAPGGPDVPERGQRSRDPGPRLSGQLLPELYSFVARVLFYLAPVYLAGYLGLSVTWLLLGALLWMWWRRNRRGKLGRLEAAFEFLEHEREFISRELRGQHLPAWIHFPDVERVEWANKIIIQIWPYLSMIMENKIREKLEPKIREKSIHLRTFTFTKLYFGQKCPKVNGVKVHTDKRNRRKVTLDLQICYIGDCEISVELQKIRGGVSGVQLQGTLRVILEPLLVDKPFIGAVTVFFLQKPHLQINWTGLTNLLDMPGINELSDSLLEDLIAAHLVLPNRVTVPVKKGLDVTNLRVPLPCGVIRVHLLEAKKLAQKDNFLGLGGKSDPYAKVSIGLQHCRSRTIYKNLNPTWNEVFEFMVYEVPGQDLEVDLYDEDTDKDDFLGSLQICLGDVMKNRVVDEWFALNDTTSGRLHLRLEWLSLLTDQEALTENDSGLSTAILVVFLENACNLPRNPFDYLNGEYRAKKLSRFVKNKASRDPSSYVKLTVGKKTFTSKTCPHSKDPVWSQVFSFFVHSVAAEQLCLKVLDDELECALGVLEFPLCRILPCADLTLEQCFQLDHSGLDSLISMRLVLRFLRVEGRELGSPYTGPDALKKGPLFIKKVATNQGCKAPPLNEGLADVTSTSNPASYIKGASKSIDNISAATTDPEPMPEPQGPGPEPKGKDSARGLCESPGKKKNPATTFLTVPGLHSPGPIKSPRPMSRPAFPFAWPLTRVAPSMSSLNSLASSCFDLTDVSLNTEAGDSRQGRLGEIQLTVRYVCLRHCLRVLVNGCRNLTPCTSSGADPYVRIYLLPERRWASRKKTSVKQKTLEPLFDETFEFFVPMGEVQKRSLDVAVKNSRPLGSHRRKELGKVLIDLSKQDLIKGFSQWYELTADGQPRS
B6: E-Syt2-Myc (protein, UniProt A0FGR8 1-921)
chain: MTANRDAALSSHRHPGCAQRPRTPTFASSSQRRSAFGFDDGNFPGLGERSHAPGSRLGARRRAKTARGLRGHRQRGAGAGLSRPGSARAPSPPRPGGPENPGGVLSVELPGLLAQLARSFALLLPVYALGYLGLSFSWVLLALALLAWCRRSRGLKALRLCRALALLEDEERVVRLGVRACDLPAWVHFPDTERAEWLNKTVKHMWPFICQFIEKLFRETIEPAVRGANTHLSTFSFTKVDVGQQPLRINGVKVYTENVDKRQIILDLQISFVGNCEIDLEIKRYFCRAGVKSIQIHGTMRVILEPLIGDMPLVGALSIFFLRKPLLEINWTGLTNLLDVPGLNGLSDTIILDIISNYLVLPNRITVPLVSEVQIAQLRFPVPKGVLRIHFIEAQDLQGKDTYLKGLVKGKSDPYGIIRVGNQIFQSRVIKENLSPKWNEVYEALVYEHPGQELEIELFDEDPDKDDFLGSLMIDLIEVEKERLLDEWFTLDEVPKGKLHLRLEWLTLMPNASNLDKVLTDIKADKDQANDGLSSALLILYLDSARNLPSGKKISSNPNPVVQMSVGHKAQESKIRYKTNEPVWEENFTFFIHNPKRQDLEVEVRDEQHQCSLGNLKVPLSQLLTSEDMTVSQRFQLSNSGPNSTIKMKIALRVLHLEKRERPPDHQHSAQVKRPSVSKEGRKTSIKSHMSGSPGPGGSNTAPSTPVIGGSDKPGMEEKAQPPEAGPQGLHDLGRSSSSLLASPGHISVKEPTPSIASDISLPIATQELRQRLRQLENGTTLGQSPLGQIQLTIRHSSQRNKLIVVVHACRNLIAFSEDGSDPYVRMYLLPDKRRSGRRKTHVSKKTLNPVFDQSFDFSVSLPEVQRRTLDVAVKNSGGFLSKDKGLLGKVLVALASEELAKGWTQWYDLTEDGTRPQAMT

Experiments:
NBCe1-B-eGFP = target: T1, NBCe1-B-eGFP; assay: co-IP; lysates of transfected HEK293T cells (PBS with 1% Triton X-100, phosphatase and protease inhibitors, pH 7.4); antibodies overnight at 4 °C, Sepharose beads for 4 h, three washes, blots; some cells co-expressing E-Syt3 or E3C2C, or depleted of PI(4,5)P2 (FRB + FKBP-5PIPase, 0.5 µM rapamycin for 8 min)
CFTR-GFP = CFTR-GFP (UniProt P13569); assay: as above
[1] = target: native CFTR of mouse submandibular gland (mouse (endogenous in submandibular gland)) (UniProt P26361); assay: co-IP; lysates of mouse submandibular glands (two mice), native or 4 days after retrograde ductal infusion of Adv-E-Syt3-Myc; lysis buffer with 1% Triton X-100; antibodies overnight at 4 °C, Sepharose beads

Row | Binder | binding (NBCe1-B-eGFP) | binding (CFTR-GFP) | binding [1]
1 | B1 | binds | binds | 
2 | B2 |  |  | binds
3 | B3 |  | binds | 
4 | B4 | binds | binds | 
5 | B5 |  |  | binds
6 | B6 | binds | binds | 
